This note sets out measurements from patent publication US20110207628A1 (UNIVERSITY OF MIAMI, published 2011).

Experiment [1] deals with T1, tubby-N (N-terminus of mouse tubby, 1M-242P), GST-free (mouse, UniProt P50586 1-242).
T1 construct: range 1-242; Expressed as GST-tubby-N in E. coli BL21(DE3), GST removed by 3C protease cleavage; also called GST-free tubby-N
T1 sequence (looked up): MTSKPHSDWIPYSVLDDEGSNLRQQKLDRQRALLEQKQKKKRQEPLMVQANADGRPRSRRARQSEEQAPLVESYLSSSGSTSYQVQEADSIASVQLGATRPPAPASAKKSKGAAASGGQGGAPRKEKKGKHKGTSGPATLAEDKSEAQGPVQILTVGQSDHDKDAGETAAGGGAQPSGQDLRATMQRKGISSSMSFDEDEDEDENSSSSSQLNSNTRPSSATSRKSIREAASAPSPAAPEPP
As to the kind of experiment: clonal phage on immobilized tubby-N, plaque assay.

For experiment [2], the target named is T2, FLAG-tubby-F (full-length mouse tubby with N-terminal FLAG tag) (mouse, UniProt P50586 1-505).
T2 construct: mature; also called FLAG-tagged tubby; tubby-vesicles
T2 sequence: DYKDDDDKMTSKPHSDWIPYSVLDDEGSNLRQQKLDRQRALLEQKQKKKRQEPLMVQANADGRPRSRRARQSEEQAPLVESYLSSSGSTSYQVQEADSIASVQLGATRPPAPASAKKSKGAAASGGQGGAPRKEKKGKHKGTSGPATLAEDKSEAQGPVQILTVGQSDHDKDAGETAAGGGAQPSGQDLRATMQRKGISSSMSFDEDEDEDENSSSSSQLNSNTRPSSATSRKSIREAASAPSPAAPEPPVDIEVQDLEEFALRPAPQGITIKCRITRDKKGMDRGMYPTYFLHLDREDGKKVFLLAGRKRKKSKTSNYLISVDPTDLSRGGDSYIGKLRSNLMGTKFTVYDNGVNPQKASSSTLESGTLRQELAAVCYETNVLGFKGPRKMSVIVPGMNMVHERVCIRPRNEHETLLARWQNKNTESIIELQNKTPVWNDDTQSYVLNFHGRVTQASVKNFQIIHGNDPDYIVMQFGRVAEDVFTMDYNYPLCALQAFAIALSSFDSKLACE
As to the kind of experiment: clonal phage on immobilized FLAG-tubby-F, plaque assay.

B1: High mobility group nucleosomal binding domain 1 (Hmgn1) 1M-49K, phage clone (other, mouse, UniProt P18608 1-49, looked up)
chain: MPKRKVSADGAAKAEPKRRSARLSAKPAPAKVDAKPKKAAGKDKASDKK
notes: range 1-49; Minimal overlap of 2 independent clones; For Y2H recloned into pGAD424
Consider B1, for which, in experiment [1], the “Binding to tubby-N (binding specificity of clonal phage vs. control phage)” value is ~61.4 X (fold). In addition, in experiment [2], the “Binding to tubby-F (binding specificity to FLAG-tubby-F vs. to GFP-FLAG)” value is ~9.5 X (fold).
